Drug screen on melanoma cell lines: apoptosis marker

Source: doi:10.1371/journal.pone.0140310, primary screening data, rounded.

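Human melanoma cells were exposed to two drugs together for 72 h in 1,536-well plates and read by automated microscopy after fixing and staining. Values are the share of nuclei positive for cleaved PARP as a percentage of the same share in the DMSO control: 100 is the control level, higher means more apoptosis. Every drug was used at one fixed concentration, the higher of two screened. The file gives one value for each pair and line, without errors, so small differences may be noise. Basal and induced levels differ widely between cell lines.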
An unselected part of the screen is shown.
An entry leaves out what has no value listed here.
A dash means that no value is listed here.

All values are for the listed drug together with lapatinib (4 µM): CS(=O)(=O)CCNCc1ccc(-c2ccc3ncnc(Nc4ccc(OCc5cccc(F)c5)c(Cl)c4)c3c2)o1

Results for Cc1ccc(Nc2nccc(N(C)c3ccc4c(C)n(C)nc4c3)n2)cc1S(N)(=O)=O at 2 µM are WM1716: 23.1; COLO 800: 55.7; COLO 829: 62.9; A375: 74.1. O=C(Nc1cccc(Cl)c1)Nc1ncc(CCNc2ncnc3ccsc23)s1 at 0.004 µM gave WM1716: 83.8; COLO 800: 82.3; COLO 829: 226. With Cn1cc(/C=C2\C(=O)Nc3cccnc32)c2ccccc21 at 2 µM the screen read WM1716: 51.2; COLO 800: 247; COLO 829: 163; A375: 84.9. For COC(=O)c1sccc1S(=O)(=O)Nc1ccc(Nc2ccccc2)cc1OC at 5 µM the values were WM1716: 90.0; COLO 800: 91.3; COLO 829: 13.6; A375: 56.4. Results for NC(=O)c1ccc(N(C(N)=O)c2c(F)cccc2F)nc1-c1ccc(F)cc1F at 2 µM are WM1716: 23.3; COLO 800: 89.5; COLO 829: 157; A375: 177. With CC(C)C[C@H](NC(=O)[C@H](Cc1ccccc1)NC(=O)c1cnccn1)B(O)O at 0.005 µM the screen read WM1716: 11700; COLO 800: 128; COLO 829: 4900; A375: 128.

COc1cc2c(Oc3ccc4[nH]c(C)cc4c3F)ncnc2cc1OCCCN1CCCC1 at 2 µM gave WM1716: 120; COLO 800: 247; COLO 829: 296. Results for Cc1cc([N+](=O)[O-])ccc1NS(=O)(=O)c1cc(Cl)ccc1Cl at 5 µM are WM1716: 77.4; COLO 800: 58.6; COLO 829: 90.6; A375: 145. Results for Cn1cc(C2=C(c3cn(C4CCN(Cc5ccccn5)CC4)c4ccccc34)C(=O)NC2=O)c2ccccc21 at 4 µM are WM1716: 189; COLO 800: 86.0; COLO 829: 234; A375: 135. Oc1cc(-c2nc(-c3ccccc3)[nH]c2-c2ccncc2)ccc1Cl at 1 µM gave WM1716: 63.8; COLO 800: 57.7; COLO 829: 181; A375: 232. CCCCCCCCCCCCCCCCCCOP(=O)([O-])OC1CC[N+](C)(C)CC1 at 2 µM gave WM1716: 86.6; COLO 800: 101; COLO 829: 120; A375: 58.9. With C[As](C)SC[C@H](NC(=O)CC[C@H](N)C(=O)O)C(=O)NCC(=O)O at 2 µM the screen read WM1716: 40.2; COLO 800: 105; COLO 829: 66.8; A375: 49.4.

With CN(c1ncccc1CNc1nc(Nc2ccc3c(c2)CC(=O)N3)ncc1C(F)(F)F)S(C)(=O)=O at 0.4 µM the screen read WM1716: 65.9; COLO 800: 122; COLO 829: 134; A375: 51.5. CS(=O)(=O)c1ccc(C(=O)Nc2ccc(Cl)c(-c3ccccn3)c2)c(Cl)c1 at 5 µM gave WM1716: 30.4; COLO 800: 207; COLO 829: 138; A375: 35.1. CCCS(=O)(=O)Nc1ccc(F)c(C(=O)c2c[nH]c3ncc(Cl)cc23)c1F at 0.4 µM gave WM1716: 204; COLO 800: 172; COLO 829: 142; A375: 87.5. O=C(O)C(=O)Nc1sc2c(c1C(=O)O)CCNC2 at 8.33 µM gave WM1716: 35.2; COLO 800: 79.6; COLO 829: 47.1; A375: 29.7. For CCc1ccc(CCOc2ccc(CC3SC(=O)NC3=O)cc2)nc1 (centres undefined) at 10 µM the values were WM1716: 71.6; COLO 800: 31.9; COLO 829: 107; A375: 81.8. With C[C@@H](Oc1cc(-c2cnn(C3CCNCC3)c2)cnc1N)c1c(Cl)ccc(F)c1Cl at 1 µM the screen read WM1716: 34.1; COLO 800: 89.8; COLO 829: 167; A375: 53.9.

With Cn1c(=O)n(-c2ccc(C(C)(C)C#N)cc2)c2c3cc(-c4cnc5ccccc5c4)ccc3ncc21 at 0.02 µM the screen read WM1716: 32.5; COLO 800: 124; COLO 829: 212; A375: 190. COc1ccc(C2=N[C@@H](c3ccc(Cl)cc3)[C@@H](c3ccc(Cl)cc3)N2C(=O)N2CCNC(=O)C2)c(OC(C)C)c1 at 0.5 µM gave WM1716: 95.9; COLO 800: 66.6; COLO 829: 94.5; A375: 23.6. Results for CNC(=O)c1cc(Oc2ccc(NC(=O)Nc3ccc(Cl)c(C(F)(F)F)c3)cc2)ccn1 at 2 µM are WM1716: 59.8; COLO 800: 204; COLO 829: 75.1; A375: 64.9. C[C@]1(O)C[C@@H](c2nc(-c3ccc4ccc(-c5ccccc5)nc4c3)c3c(N)nccn32)C1 at 2 µM gave WM1716: 23.2; COLO 800: 273; COLO 829: 59.7; A375: 91.5. For NC(=O)Nc1cc(-c2cccc(F)c2)sc1C(=O)N[C@H]1CCCNC1 at 0.1 µM the values were WM1716: 260; COLO 800: 193; COLO 829: 71.1.

The last 2 entries again:

Second drug,WM1716,COLO 800,COLO 829,A375
C[C@]1(O)C[C@@H](c2nc(-c3ccc4ccc(-c5ccccc5)nc4c3)c3c(N)nccn32)C1 at 2 µM,23.2,273,59.7,91.5
NC(=O)Nc1cc(-c2cccc(F)c2)sc1C(=O)N[C@H]1CCCNC1 at 0.1 µM,260,193,71.1,-